Laboratory results published in patent publication US4891358A, “ANE derivatives with novel bridging” (Bio-Mega Inc., priority 1987, dated 1990).
Not every detail of the peptide structures is certain; ends, links or a residue may be inferred. Numbered stars: 1 amine (or outer) side, 2 acyl side, 3 side chain; on linkers, the order of the positions; unused ones are H or OH. Bridge positions count the residues as written; N and C are the ends. Square brackets hold non-standard residues; d marks the D form. Peptide text beside a SMILES is read from it. hCys = N[C@@H](CCS)C(=O)O; X1 = O=C(CCC[*:2])[*:1]; X2 = O=C(CC[*:2])[*:1]

Test system: conscious normotensive rat
Test: Diuretic assay in the conscious normotensive rat
Assay type: in vivo
Settings: for URINE VOLUME: 0.5 μg/kg/min infusion via femoral vein, ratio of treated over control, volume in 10 minute sample (average of three consecutive samples); for ELECTROLYTE EXCRETION K^+ / ELECTROLYTE EXCRETION Na^+: treated minus controls, average of three samples
Description: More explicitly, normotensive male rats (300-325 g) were anesthetized with halothane. Following an application of lidocaine 2% solution, the femoral artery was cannulated for measurements of blood pressure and heart rate, and the femoral vein was cannulated for the administration of the test compounds. The bladder was also cannulated to measure urine flow. After surgery was completed, the animals were placed in restraining cages and allowed to recover from anesthesia for a period of one hour. A Ringer's solution infusion was started at a rate of 1.2 ml per hour. Three control urine samples were collected at 10 minute intervals. The test compound was then infused at a rate varying from 0.5 to 3 μg/kg/min over 30 minutes. Three test samples of urine were collected at 10 minute intervals during the compound infusion. After the test compound had been infused for 30 minutes and 3 more urine samples were collected. The volume of each urine sample was determined and the electrolyte concentration was measured using a biomedical electrolyte analyser. The animals served as their own controls. The systolic and diastolic blood pressures and the heart rate were determined during each urine collection period.

SMILES	URINE VOLUME	ELECTROLYTE EXCRETION K^+ (0.5 μg/kg/min infusion)	ELECTROLYTE EXCRETION Na^+ (0.5 μg/kg/min infusion)	duration of diuretic effect (0.5 μg/kg/min infusion, compared with atriopeptin III (footnote d to urine volume))
CC[C@H](C)[C@@H]1NC(=O)[C@H](CCCNC(=N)N)NC(=O)[C@H](CC(=O)O)NC(=O)[C@H]([C@@H](C)CC)NC(=O)[C@H](CCCNC(=N)N)NC(=O)CNC(=O)CNC(=O)[C@H](Cc2ccccc2)NC(=O)CCSCC[C@@H](C(=O)N[C@@H](CC(N)=O)C(=O)N[C@@H](CO)C(=O)N[C@@H](Cc2ccccc2)C(=O)N[C@@H](CCCNC(=N)N)C(=O)N[C@@H](Cc2ccc(O)cc2)C(=O)O)NC(=O)CNC(=O)[C@H](CC(C)C)NC(=O)CNC(=O)[C@H](CO)NC(=O)[C@H](CCC(N)=O)NC(=O)[C@H](C)NC(=O)CNC1=O [rat[(CH2 CH2 CO)^105, hCys^121]ANF-(105-126)] (FGGRIDRIGAQSGLG[hCys]NSFRY-OH; linker N-16 via X2)	1.7	3.5	7.2	–
CC[C@H](C)[C@@H]1NC(=O)[C@H](CCCNC(=N)N)NC(=O)[C@H](CC(=O)O)NC(=O)[C@H]([C@@H](C)CC)NC(=O)[C@H](CCCNC(=N)N)NC(=O)CNC(=O)CNC(=O)[C@H](Cc2ccccc2)NC(=O)CCCSC[C@@H](C(=O)N[C@@H](CC(N)=O)C(=O)N[C@@H](CO)C(=O)N[C@@H](Cc2ccccc2)C(=O)N[C@@H](CCCNC(=N)N)C(=O)N[C@@H](Cc2ccc(O)cc2)C(=O)OC)NC(=O)CNC(=O)[C@H](CC(C)C)NC(=O)CNC(=O)[C@H](CO)NC(=O)[C@H](CCC(N)=O)NC(=O)[C@H](C)NC(=O)CNC1=O [rat [(CH2 CH2 CH2 CO)^105]ANF-(105-126)OCH3] (FGGRIDRIGAQSGLGCNSFRY-OMe; linker N-16 via X1)	3.4	23.5	38.1	diuretic effect more prolonged than with atriopeptin III
CC[C@H](C)[C@@H]1NC(=O)[C@H](CCCNC(=N)N)NC(=O)[C@H](CC(=O)O)NC(=O)[C@H]([C@@H](C)CC)NC(=O)[C@H](CCCNC(=N)N)NC(=O)CNC(=O)CNC(=O)[C@H](Cc2ccccc2)NC(=O)[C@@H](NC(=O)[C@H](CO)NC(=O)[C@@H](N)CO)CSSC[C@@H](C(=O)N[C@@H](CC(N)=O)C(=O)N[C@@H](CO)C(=O)N[C@@H](Cc2ccccc2)C(=O)N[C@@H](CCCNC(=N)N)C(=O)N[C@@H](Cc2ccc(O)cc2)C(=O)O)NC(=O)CNC(=O)[C@H](CC(C)C)NC(=O)CNC(=O)[C@H](CO)NC(=O)[C@H](CCC(N)=O)NC(=O)[C@H](C)NC(=O)CNC1=O [Atriopeptin III, atriopeptin III, reference compound] (H-SSCFGGRIDRIGAQSGLGCNSFRY-OH; disulfide 3-19)	2.7	23.0	79.6	–
